{
  "source": "patent US20160069887A1",
  "about": "“BIOMARKERS FOR PROGNOSIS” (ISIS INNOVATION LIMITED, priority 2013, published 2016)",
  "tested_on": "U2OS-TET-Flag-HR23B inducible cells",
  "test": "Cell colony assay",
  "assay_type": "cell-based",
  "settings": "ectopic HR23B (+Dox) compared to uninduced (−Dox) cells; 9 days",
  "protocol": "e) i) U2OS cells stably expressing HR23B were grown in duplicate in the absence (−) or presence (+) of doxycycline together with SAHA (indicated concentration in μM) and, after 9 days, the number of viable cell colonies was assessed by crystal violet staining. The untreated control cells are shown for comparison.\nii) Graphical representation of the data in (i).\nU2OS-TET-Flag-HR23B inducible cells were seeded at 1000 cells/well in 6-well plates. Flag-HR23B was induced for 4 hr prior to 24 hr drug treatment as indicated. At 9 days post-drug treatment, cells were washed in PBS, fixed in methanol and stained with crystal violet solution for 15 min before extensive washing with water. The colonies were quantified using an Alphalmager® HP Imaging System and Alphaview software by Alpha Innotech Corporation.",
  "data": [
    {"molecule": "O=C(CCCCCCC(=O)Nc1ccccc1)NO", "note": "[SAHA, N-hydroxy-N′-phenyloctanediamide]", "values": [
      {"measurement": "growth inhibitory effect (reduction in cell colony formation number)", "result": "markedly enhanced growth inhibitory effect"}
    ]}
  ]
}
